Among the data in paper PMC11403291 are binding values, retold here.

The chains behind the UniProt entries cited, without tags or fusion partners.
UniProt P09874: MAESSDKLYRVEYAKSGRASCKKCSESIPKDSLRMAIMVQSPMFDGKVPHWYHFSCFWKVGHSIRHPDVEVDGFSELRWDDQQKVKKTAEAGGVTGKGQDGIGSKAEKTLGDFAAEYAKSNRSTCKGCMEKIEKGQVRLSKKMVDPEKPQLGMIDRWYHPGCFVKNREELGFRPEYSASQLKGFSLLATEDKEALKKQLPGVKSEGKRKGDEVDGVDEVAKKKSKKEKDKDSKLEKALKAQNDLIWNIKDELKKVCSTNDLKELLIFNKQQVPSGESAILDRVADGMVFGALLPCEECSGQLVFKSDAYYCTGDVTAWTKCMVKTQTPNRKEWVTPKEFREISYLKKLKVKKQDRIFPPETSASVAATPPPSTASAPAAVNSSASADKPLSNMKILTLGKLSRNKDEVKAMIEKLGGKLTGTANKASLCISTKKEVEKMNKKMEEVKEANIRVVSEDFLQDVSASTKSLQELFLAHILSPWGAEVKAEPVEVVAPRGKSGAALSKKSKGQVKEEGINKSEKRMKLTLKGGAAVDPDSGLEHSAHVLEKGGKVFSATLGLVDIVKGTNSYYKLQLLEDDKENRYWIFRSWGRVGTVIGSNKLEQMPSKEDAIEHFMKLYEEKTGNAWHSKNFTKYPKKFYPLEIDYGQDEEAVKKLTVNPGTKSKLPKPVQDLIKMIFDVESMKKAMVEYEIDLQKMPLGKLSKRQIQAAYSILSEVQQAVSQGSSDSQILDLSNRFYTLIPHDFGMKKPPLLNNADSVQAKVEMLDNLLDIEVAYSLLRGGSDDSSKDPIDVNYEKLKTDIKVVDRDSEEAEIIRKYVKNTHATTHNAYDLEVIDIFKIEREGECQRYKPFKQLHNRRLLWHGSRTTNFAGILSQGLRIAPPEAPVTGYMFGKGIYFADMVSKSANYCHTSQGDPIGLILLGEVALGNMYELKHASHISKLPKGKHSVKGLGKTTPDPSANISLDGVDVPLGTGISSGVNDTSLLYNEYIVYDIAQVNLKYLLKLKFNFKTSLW
UniProt P11387: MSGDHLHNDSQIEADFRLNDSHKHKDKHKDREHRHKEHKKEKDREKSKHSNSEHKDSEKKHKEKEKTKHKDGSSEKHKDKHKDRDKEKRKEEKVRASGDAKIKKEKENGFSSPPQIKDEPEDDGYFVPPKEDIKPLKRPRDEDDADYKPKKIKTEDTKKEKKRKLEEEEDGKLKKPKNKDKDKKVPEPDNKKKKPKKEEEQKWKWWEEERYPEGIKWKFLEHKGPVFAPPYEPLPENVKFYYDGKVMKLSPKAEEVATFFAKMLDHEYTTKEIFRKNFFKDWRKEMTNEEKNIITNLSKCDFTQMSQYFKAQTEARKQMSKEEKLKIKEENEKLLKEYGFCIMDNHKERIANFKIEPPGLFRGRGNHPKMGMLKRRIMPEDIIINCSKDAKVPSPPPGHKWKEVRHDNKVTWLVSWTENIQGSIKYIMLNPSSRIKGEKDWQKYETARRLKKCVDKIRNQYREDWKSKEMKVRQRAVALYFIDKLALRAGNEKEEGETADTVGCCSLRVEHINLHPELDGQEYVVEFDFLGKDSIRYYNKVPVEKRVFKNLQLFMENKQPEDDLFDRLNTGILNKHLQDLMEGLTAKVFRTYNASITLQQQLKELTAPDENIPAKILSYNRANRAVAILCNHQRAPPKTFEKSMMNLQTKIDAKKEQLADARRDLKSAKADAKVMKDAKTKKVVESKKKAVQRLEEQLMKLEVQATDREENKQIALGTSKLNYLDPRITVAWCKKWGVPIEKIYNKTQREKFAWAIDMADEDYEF

This assay deals with PARP1 (human (endogenous in HEK293, K-562, placenta, HepG2 Princen)) (UniProt P09874). The assay can be described thus: affinity purification with mass spectrometry.

These are yes or no findings as the source states them, for the method shown. Binding seen in cells or lysates may run through a third protein. A yes stands for co-enrichment or nearness to the bait. Other partners may have been found.

In the case of “DNA topoisomerase (TOP1) (from UniProt P11387 1-765) (enzyme)”, the binding entry is recorded as “binds”.
